Experimental data as given in patent US7524503B2, “Human cytomegalovirus (HCMV) cytotoxic T cell epitopes, polyepitopes compositions comprising same and diagnostic and prophylactic and therapeutic uses therefor” (priority 2001, dated 2009).
“Also recorded” adds a separate entry of the source. No dose or concentration is given here for some results.

Test system: peptide-sensitized autologous and allogeneic PHA blasts or LCLs
Assay: HLA class I restriction analysis with CTL lines
Format: cell-based, human
Details: 20mer peptides / minimal sequence, Table 4

Sequence | HLA Restriction
RVKIDEVSRMFRNTNRSLEY | HLA A1/B8
VKSEVDAVRCRLGTMCNLAL | HLA A2
AHELVCSMENTRATKMQVIG | HLA B57
VLCCYVLEETSVMLAKRPLI (human cytomegalovirus IE1 CTL epitope peptide) | HLA A2
RQTEKHELLVLVKKAQLNRH | HLA DR*
VFTWPPWQAGILARNLVPMV | HLA A2
TYEKYGNVSVFETSGGLVVF (human cytomegalovirus gB CTL epitope peptide) | HLA A29
IQIIYTRNHEVKSEVDAVRC | HLA A2
QEFFWDANDIYRIFAELEGV | HLA B44; also recorded: HLA A1/A24
TAAKAYAVGQFEQPTETPPE (human cytomegalovirus IE2 CTL epitope peptide) | HLA B41
IIKPGKISHIMLDVAFTSHE | HLA B35
MNGQQIFLEVQAIRETVELR | HLA B57 & B58
SSSSSSCSSASDSESESEEM (human cytomegalovirus IE2 CTL epitope peptide) | HLA B35
YRNMIIHAATPVDLLGALNL (human cytomegalovirus IE2 CTL epitope peptide) | HLA A1/B8/B35; also recorded: HLA A2
THQLCPRSSDYRNMIIHAAT (human cytomegalovirus IE2 CTL epitope peptide) | HLA A1/B8
PQYSEHPTFTSQYRIQGKLE | HLA A24; also recorded: HLA A1
ILARNLVPMVATVQGQNLKY | HLA A2
RSYAYIYTTYLLGSNTEYVA (human cytomegalovirus gB CTL epitope peptide) | HLA B41
MQLIPDDYSNTHSTRYVTVK (human cytomegalovirus gB CTL epitope peptide) | HLA DR7
SICPSQEPMSIYVYALPLKM | HLA B35
TRATKMQVIGDQYVKVYLES | HLA B57
QYDPVAALFFFDIDLLLQRG | HLA B35
ATVQGQNLKYQEFFWDANDI | HLA B44
PVDLLGALNLCLPLMQKFPK (human cytomegalovirus IE2 CTL epitope peptide) | HLA A1/B8
PRVTSPTHPLSQMNHPPLPD | HLA B35
FEQPTETPPEDLDTLSLAIE (human cytomegalovirus IE2 CTL epitope peptide) | HLA B41
LTVSGLAWTRQQNQWKEPDV | HLA B8
LNIPSINVHHYPSAAERKHR | HLA B35
YYTSAFVFPTKDVALRHVVC | HLA B35
